In this test the target is WT ORF1p-FLAG (L1.3 ORF1-encoded protein with a carboxyl-terminal FLAG epitope tag, expressed from pJM101/L1.3FLAG) (human) (UniProt Q9UN81). The test is described as follows: affinity purification with mass spectrometry; HeLa-JVM cells transfected with L1 constructs; anti-FLAG M2 on Dynabeads Protein G, Lysis150 buffer (20 mM Tris-HCl pH 7.5, 2.5 mM MgCl2, 150 mM KCl, 0.5% IGEPAL CA-630, 1 mM DTT), 4 °C, elution with 3xFLAG peptide; LC-MS/MS with label-free quantification, WT ORF1p-FLAG vs. M8/RBM-FLAG.

Chains of the proteins cited; added tags and fusions are not shown.
UniProt Q9UN81: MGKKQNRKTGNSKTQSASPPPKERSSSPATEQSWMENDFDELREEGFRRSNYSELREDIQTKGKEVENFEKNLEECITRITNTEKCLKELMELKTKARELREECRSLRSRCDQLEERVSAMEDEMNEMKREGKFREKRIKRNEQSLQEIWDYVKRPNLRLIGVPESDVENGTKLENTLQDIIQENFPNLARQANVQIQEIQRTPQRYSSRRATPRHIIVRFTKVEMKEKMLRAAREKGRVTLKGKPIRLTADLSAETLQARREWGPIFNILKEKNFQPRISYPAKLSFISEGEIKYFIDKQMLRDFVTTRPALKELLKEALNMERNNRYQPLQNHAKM
UniProt Q5H9U9: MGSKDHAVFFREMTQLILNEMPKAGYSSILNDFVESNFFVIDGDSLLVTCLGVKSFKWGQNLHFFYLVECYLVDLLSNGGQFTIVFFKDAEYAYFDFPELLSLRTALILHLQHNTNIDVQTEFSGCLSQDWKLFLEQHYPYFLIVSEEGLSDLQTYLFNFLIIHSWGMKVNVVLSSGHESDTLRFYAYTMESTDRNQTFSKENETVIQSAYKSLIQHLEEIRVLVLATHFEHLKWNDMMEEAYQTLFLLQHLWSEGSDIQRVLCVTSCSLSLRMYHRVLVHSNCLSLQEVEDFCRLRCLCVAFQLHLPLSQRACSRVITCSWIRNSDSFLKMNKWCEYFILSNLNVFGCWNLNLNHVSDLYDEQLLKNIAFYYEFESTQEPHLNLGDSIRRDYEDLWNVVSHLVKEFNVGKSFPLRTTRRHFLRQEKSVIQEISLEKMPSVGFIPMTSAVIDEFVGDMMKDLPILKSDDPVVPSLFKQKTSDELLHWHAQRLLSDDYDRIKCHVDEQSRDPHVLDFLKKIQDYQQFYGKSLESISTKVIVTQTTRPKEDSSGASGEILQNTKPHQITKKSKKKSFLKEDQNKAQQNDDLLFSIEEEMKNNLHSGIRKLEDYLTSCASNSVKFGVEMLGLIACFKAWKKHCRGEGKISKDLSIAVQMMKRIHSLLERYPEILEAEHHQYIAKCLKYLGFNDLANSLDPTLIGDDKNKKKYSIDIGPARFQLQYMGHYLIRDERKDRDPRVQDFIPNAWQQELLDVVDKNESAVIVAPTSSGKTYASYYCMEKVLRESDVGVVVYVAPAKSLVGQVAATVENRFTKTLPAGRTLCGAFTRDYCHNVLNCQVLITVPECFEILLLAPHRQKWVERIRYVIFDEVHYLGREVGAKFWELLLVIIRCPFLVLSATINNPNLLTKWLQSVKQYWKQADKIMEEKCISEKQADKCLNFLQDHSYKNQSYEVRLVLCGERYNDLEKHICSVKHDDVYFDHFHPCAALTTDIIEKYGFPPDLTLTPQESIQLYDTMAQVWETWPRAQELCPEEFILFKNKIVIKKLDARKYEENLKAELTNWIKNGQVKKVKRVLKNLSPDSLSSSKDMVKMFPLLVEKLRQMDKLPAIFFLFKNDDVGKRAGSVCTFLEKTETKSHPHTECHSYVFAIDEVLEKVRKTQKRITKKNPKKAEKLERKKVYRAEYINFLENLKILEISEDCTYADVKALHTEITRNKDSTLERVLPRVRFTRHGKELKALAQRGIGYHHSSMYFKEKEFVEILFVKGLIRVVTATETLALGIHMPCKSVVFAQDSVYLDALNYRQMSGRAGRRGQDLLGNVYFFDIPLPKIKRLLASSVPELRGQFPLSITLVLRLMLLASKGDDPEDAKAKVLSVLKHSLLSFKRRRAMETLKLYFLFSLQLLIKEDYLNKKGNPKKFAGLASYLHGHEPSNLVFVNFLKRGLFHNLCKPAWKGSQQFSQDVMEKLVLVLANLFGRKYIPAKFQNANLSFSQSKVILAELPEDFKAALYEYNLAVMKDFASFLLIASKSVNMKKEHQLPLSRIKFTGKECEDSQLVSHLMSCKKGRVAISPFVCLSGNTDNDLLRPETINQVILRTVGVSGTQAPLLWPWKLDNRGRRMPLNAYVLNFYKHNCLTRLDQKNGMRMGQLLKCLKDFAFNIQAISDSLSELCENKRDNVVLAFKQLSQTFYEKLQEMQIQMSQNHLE
UniProt Q9H0J9: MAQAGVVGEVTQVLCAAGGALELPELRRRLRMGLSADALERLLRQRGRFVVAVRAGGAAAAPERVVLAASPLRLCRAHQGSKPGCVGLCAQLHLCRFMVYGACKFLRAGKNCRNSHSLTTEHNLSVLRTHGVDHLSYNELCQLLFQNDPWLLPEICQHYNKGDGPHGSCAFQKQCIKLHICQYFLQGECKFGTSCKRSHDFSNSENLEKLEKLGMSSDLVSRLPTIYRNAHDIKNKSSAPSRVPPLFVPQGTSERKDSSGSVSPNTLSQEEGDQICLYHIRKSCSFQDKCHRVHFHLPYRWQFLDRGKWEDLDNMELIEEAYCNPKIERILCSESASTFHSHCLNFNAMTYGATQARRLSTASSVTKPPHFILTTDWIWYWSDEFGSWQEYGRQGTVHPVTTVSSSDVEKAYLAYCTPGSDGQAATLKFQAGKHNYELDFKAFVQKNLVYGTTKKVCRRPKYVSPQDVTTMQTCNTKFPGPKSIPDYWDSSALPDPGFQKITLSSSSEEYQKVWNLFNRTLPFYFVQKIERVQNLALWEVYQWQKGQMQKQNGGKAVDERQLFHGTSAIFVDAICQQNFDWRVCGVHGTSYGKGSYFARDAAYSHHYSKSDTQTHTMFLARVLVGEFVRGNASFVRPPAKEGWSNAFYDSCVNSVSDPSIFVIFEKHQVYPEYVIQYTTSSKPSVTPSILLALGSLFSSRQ
UniProt Q96C10: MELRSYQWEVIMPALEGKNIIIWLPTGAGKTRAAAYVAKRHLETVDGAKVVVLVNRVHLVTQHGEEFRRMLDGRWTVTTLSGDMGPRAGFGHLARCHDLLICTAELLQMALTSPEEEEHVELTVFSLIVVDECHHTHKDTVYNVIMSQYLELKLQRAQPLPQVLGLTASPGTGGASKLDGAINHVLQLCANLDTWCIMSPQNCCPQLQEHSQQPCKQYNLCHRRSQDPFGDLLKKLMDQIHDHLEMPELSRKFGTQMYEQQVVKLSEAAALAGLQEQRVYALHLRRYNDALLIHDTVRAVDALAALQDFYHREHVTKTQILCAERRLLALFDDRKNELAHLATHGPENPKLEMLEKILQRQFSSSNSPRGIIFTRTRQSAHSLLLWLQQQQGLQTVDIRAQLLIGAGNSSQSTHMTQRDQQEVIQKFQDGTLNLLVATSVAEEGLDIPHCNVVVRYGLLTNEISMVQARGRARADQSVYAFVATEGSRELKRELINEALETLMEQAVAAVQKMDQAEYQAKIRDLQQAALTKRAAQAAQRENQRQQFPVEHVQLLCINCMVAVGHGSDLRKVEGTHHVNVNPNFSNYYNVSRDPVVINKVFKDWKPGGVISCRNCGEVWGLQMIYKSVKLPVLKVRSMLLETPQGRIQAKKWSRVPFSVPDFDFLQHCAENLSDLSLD
UniProt Q14258: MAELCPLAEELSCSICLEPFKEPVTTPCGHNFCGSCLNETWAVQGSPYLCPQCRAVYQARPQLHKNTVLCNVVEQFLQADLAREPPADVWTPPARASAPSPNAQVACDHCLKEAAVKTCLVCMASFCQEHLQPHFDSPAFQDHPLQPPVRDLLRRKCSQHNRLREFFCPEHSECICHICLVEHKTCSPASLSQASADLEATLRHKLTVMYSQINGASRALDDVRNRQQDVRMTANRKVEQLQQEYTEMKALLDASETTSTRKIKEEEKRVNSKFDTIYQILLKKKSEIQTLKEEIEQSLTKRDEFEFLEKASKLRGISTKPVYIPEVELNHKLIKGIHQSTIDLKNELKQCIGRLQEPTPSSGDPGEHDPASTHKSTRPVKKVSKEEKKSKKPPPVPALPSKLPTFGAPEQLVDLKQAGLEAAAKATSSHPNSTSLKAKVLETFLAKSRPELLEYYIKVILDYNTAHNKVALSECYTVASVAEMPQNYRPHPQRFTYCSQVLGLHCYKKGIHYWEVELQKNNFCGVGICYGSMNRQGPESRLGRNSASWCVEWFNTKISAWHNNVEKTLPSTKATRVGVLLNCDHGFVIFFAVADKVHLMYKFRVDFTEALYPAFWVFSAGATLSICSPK
UniProt P19525: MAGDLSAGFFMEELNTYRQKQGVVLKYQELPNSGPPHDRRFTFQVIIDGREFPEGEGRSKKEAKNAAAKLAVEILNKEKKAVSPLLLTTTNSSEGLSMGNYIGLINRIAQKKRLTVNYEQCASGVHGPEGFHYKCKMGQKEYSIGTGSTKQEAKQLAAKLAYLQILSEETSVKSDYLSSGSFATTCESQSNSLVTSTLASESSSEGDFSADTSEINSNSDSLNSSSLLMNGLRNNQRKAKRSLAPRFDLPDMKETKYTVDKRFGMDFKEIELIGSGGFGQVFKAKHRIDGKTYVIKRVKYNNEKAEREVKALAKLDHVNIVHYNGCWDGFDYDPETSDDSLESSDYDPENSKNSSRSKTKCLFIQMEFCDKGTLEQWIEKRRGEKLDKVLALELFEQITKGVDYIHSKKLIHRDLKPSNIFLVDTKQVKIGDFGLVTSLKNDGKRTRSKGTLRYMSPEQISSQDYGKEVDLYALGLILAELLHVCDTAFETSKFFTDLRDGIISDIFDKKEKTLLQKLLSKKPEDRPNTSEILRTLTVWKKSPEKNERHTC
UniProt Q8IY21: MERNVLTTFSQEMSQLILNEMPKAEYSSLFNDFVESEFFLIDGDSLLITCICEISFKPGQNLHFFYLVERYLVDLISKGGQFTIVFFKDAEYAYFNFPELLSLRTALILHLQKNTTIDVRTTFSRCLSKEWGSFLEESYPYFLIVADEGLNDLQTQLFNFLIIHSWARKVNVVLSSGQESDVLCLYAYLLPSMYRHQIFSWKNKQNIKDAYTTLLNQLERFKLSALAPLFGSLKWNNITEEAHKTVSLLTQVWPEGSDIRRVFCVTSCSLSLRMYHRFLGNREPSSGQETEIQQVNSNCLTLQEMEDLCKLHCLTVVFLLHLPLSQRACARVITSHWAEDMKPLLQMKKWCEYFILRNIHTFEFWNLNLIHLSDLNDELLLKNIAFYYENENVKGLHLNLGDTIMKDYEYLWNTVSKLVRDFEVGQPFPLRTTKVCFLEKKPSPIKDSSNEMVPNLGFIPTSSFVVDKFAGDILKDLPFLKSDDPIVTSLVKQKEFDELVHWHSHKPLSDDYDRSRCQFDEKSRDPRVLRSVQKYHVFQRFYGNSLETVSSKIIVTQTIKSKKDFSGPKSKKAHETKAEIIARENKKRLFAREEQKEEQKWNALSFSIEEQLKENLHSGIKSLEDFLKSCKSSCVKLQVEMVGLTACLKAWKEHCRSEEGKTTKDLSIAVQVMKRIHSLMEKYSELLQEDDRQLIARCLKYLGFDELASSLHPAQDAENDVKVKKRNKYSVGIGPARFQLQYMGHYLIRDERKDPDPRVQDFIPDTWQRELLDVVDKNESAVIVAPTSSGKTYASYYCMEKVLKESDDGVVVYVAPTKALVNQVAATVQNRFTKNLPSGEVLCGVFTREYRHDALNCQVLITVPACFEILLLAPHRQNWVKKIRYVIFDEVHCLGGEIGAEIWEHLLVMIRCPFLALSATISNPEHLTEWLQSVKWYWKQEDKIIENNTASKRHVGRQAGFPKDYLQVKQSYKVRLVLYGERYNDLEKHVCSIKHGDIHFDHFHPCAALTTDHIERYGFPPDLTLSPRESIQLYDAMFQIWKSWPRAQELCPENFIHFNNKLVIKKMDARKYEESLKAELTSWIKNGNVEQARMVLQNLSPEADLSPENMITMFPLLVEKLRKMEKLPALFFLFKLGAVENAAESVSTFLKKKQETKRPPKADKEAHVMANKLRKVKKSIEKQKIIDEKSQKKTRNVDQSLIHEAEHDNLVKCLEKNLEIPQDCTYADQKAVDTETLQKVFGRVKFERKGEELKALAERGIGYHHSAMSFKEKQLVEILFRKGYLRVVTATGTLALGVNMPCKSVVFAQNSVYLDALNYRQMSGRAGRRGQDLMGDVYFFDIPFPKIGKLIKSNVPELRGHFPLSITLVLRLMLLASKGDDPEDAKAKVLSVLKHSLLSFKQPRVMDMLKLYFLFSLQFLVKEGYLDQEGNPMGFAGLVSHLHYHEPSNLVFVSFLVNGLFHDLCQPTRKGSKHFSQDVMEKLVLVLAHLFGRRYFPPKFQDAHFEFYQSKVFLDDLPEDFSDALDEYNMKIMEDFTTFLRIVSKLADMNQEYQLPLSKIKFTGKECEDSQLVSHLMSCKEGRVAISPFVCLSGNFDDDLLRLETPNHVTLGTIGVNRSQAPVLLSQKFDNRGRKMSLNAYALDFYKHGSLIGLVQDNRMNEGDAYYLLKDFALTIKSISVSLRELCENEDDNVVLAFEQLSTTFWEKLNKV

From article PMC9839780 come the findings set out here.

These are yes or no findings as the source states them, for the method shown. In cells and extracts the contact can be indirect. These calls come from enrichment with a bait or labelling near it, and not all partners need be listed.

Consider “DDX60L, endogenous (from UniProt Q5H9U9 1-1706)”, for which the binding result is “binds”. As to “ZC3HAV1 (zinc-finger antiviral protein, ZAP) (from UniProt Q7Z2W4 1-902)”, the binding result was “binds”. For ADARB1 (from UniProt P78563 1-741) the value was “binds”; for IFI16 (from UniProt Q16666 1-785), “binds”; for PARP12 (from UniProt Q9H0J9 1-701), “binds”. Take DHX58 (from UniProt Q96C10 1-678): the binding entry is recorded as “binds”. To TRIM25 (from UniProt Q14258 1-630) belongs “binds”; to EIF2AK2 (from UniProt P19525 1-551), “binds”; to LGALS3BP (from UniProt Q08380 19-585), “binds”. As to DDX60 (from UniProt Q8IY21 1-1712), the binding result is recorded as “binds”. For APOBEC3B (from UniProt Q9UH17 1-382) the value was “binds”.

B1: ADAR (protein, UniProt P55265 1-1226)
chain: MNPRQGYSLSGYYTHPFQGYEHRQLRYQQPGPGSSPSSFLLKQIEFLKGQLPEAPVIGKQTPSLPPSLPGLRPRFPVLLASSTRGRQVDIRGVPRGVHLRSQGLQRGFQHPSPRGRSLPQRGVDCLSSHFQELSIYQDQEQRILKFLEELGEGKATTAHDLSGKLGTPKKEINRVLYSLAKKGKLQKEAGTPPLWKIAVSTQAWNQHSGVVRPDGHSQGAPNSDPSLEPEDRNSTSVSEDLLEPFIAVSAQAWNQHSGVVRPDSHSQGSPNSDPGLEPEDSNSTSALEDPLEFLDMAEIKEKICDYLFNVSDSSALNLAKNIGLTKARDINAVLIDMERQGDVYRQGTTPPIWHLTDKKRERMQIKRNTNSVPETAPAAIPETKRNAEFLTCNIPTSNASNNMVTTEKVENGQEPVIKLENRQEARPEPARLKPPVHYNGPSKAGYVDFENGQWATDDIPDDLNSIRAAPGEFRAIMEMPSFYSHGLPRCSPYKKLTECQLKNPISGLLEYAQFASQTCEFNMIEQSGPPHEPRFKFQVVINGREFPPAEAGSKKVAKQDAAMKAMTILLEEAKAKDSGKSEESSHYSTEKESEKTAESQTPTPSATSFFSGKSPVTTLLECMHKLGNSCEFRLLSKEGPAHEPKFQYCVAVGAQTFPSVSAPSKKVAKQMAAEEAMKALHGEATNSMASDNQPEGMISESLDNLESMMPNKVRKIGELVRYLNTNPVGGLLEYARSHGFAAEFKLVDQSGPPHEPKFVYQAKVGGRWFPAVCAHSKKQGKQEAADAALRVLIGENEKAERMGFTEVTPVTGASLRRTMLLLSRSPEAQPKTLPLTGSTFHDQIAMLSHRCFNTLTNSFQPSLLGRKILAAIIMKKDSEDMGVVVSLGTGNRCVKGDSLSLKGETVNDCHAEIISRRGFIRFLYSELMKYNSQTAKDSIFEPAKGGEKLQIKKTVSFHLYISTAPCGDGALFDKSCSDRAMESTESRHYPVFENPKQGKLRTKVENGEGTIPVESSDIVPTWDGIRLGERLRTMSCSDKILRWNVLGLQGALLTHFLQPIYLKSVTLGYLFSQGHLTRAICCRVTRDGSAFEDGLRHPFIVNHPKVGRVSIYDSKRQSGKTKETSVNWCLADGYDLEILDGTRGTVDGPRNELSRVSKKNIFLLFKKLCSFRYRRDLLRLSYGEAKKAARDYETAKNYFKKGLKDMGYGNWISKPQEEKNFYLCPV
As for B1, the binding entry is recorded as “binds”.

B2: IFIT1, endogenous (protein, UniProt P09914 1-478)
chain: MSTNGDDHQVKDSLEQLRCHFTWELSIDDDEMPDLENRVLDQIEFLDTKYSVGIHNLLAYVKHLKGQNEEALKSLKEAENLMQEEHDNQANVRSLVTWGNFAWMYYHMGRLAEAQTYLDKVENICKKLSNPFRYRMECPEIDCEEGWALLKCGGKNYERAKACFEKVLEVDPENPESSAGYAISAYRLDGFKLATKNHKPFSLLPLRQAVRLNPDNGYIKVLLALKLQDEGQEAEGEKYIEEALANMSSQTYVFRYAAKFYRRKGSVDKALELLKKALQETPTSVLLHHQIGLCYKAQMIQIKEATKGQPRGQNREKLDKMIRSAIFHFESAVEKKPTFEVAHLDLARMYIEAGNHRKAEENFQKLLCMKPVVEETMQDIHFHYGRFQEFQKKSDVNAIIHYLKAIKIEQASLTRDKSINSLKKLVLRKLRRKALDLESLSLLGFVYKLEGNMNEALEYYERALRLAADFENSVRQGP
For the molecule B2, the binding result is on record as “binds”.

B3: TRIM56 (protein, UniProt Q9BRZ2 1-755)
chain: MVSHGSSPSLLEALSSDFLACKICLEQLRAPKTLPCLHTYCQDCLAQLADGGRVRCPECRETVPVPPEGVASFKTNFFVNGLLDLVKARACGDLRAGKPACALCPLVGGTSTGGPATARCLDCADDLCQACADGHRCTRQTHTHRVVDLVGYRAGWYDEEARERQAAQCPQHPGEALRFLCQPCSQLLCRECRLDPHLDHPCLPLAEAVRARRPGLEGLLAGVDNNLVELEAARRVEKEALARLREQAARVGTQVEEAAEGVLRALLAQKQEVLGQLRAHVEAAEEAARERLAELEGREQVARAAAAFARRVLSLGREAEILSLEGAIAQRLRQLQGCPWAPGPAPCLLPQLELHPGLLDKNCHLLRLSFEEQQPQKDGGKDGAGTQGGEESQSRREDEPKTERQGGVQPQAGDGAQTPKEEKAQTTREEGAQTLEEDRAQTPHEDGGPQPHRGGRPNKKKKFKGRLKSISREPSPALGPNLDGSGLLPRPIFYCSFPTRMPGDKRSPRITGLCPFGPREILVADEQNRALKRFSLNGDYKGTVPVPEGCSPCSVAALQSAVAFSASARLYLINPNGEVQWRRALSLSQASHAVAALPSGDRVAVSVAGHVEVYNMEGSLATRFIPGGKASRGLRALVFLTTSPQGHFVGSDWQQNSVVICDGLGQVVGEYKGPGLHGCQPGSVSVDKKGYIFLTLREVNKVVILDPKGSLLGDFLTAYHGLEKPRVTTMVDGRYLVVSLSNGTIHIFRVRSPDS
Consider B3, for which the binding result is recorded as “binds”.

B4: IFIT2 (protein, UniProt P09913 1-472)
chain: MSENNKNSLESSLRQLKCHFTWNLMEGENSLDDFEDKVFYRTEFQNREFKATMCNLLAYLKHLKGQNEAALECLRKAEELIQQEHADQAEIRSLVTWGNYAWVYYHMGRLSDVQIYVDKVKHVCEKFSSPYRIESPELDCEEGWTRLKCGGNQNERAKVCFEKALEKKPKNPEFTSGLAIASYRLDNWPPSQNAIDPLRQAIRLNPDNQYLKVLLALKLHKMREEGEEEGEGEKLVEEALEKAPGVTDVLRSAAKFYRRKDEPDKAIELLKKALEYIPNNAYLHCQIGCCYRAKVFQVMNLRENGMYGKRKLLELIGHAVAHLKKADEANDNLFRVCSILASLHALADQYEDAEYYFQKEFSKELTPVAKQLLHLRYGNFQLYQMKCEDKAIHHFIEGVKINQKSREKEKMKDKLQKIAKMRLSKNGADSEALHVLAFLQELNEKMQQADEDSERGLESGSLIPSASSWNGE
Regarding B4, the binding entry is reported as “binds”.

B5: 2'-5'-oligoadenylate synthetase-like (OASL), endogenous (protein, UniProt Q15646 1-514)
chain: MALMQELYSTPASRLDSFVAQWLQPHREWKEEVLDAVRTVEEFLRQEHFQGKRGLDQDVRVLKVVKVGSFGNGTVLRSTREVELVAFLSCFHSFQEAAKHHKDVLRLIWKTMWQSQDLLDLGLEDLRMEQRVPDALVFTIQTRGTAEPITVTIVPAYRALGPSLPNSQPPPEVYVSLIKACGGPGNFCPSFSELQRNFVKHRPTKLKSLLRLVKHWYQQYVKARSPRANLPPLYALELLTIYAWEMGTEEDENFMLDEGFTTVMDLLLEYEVICIYWTKYYTLHNAIIEDCVRKQLKKERPIILDPADPTLNVAEGYRWDIVAQRASQCLKQDCCYDNRENPISSWNVKRARDIHLTVEQRGYPDFNLIVNPYEPIRKVKEKIRRTRGYSGLQRLSFQVPGSERQLLSSRCSLAKYGIFSHTHIYLLETIPSEIQVFVKNPDGGSYAYAINPNSFILGLKQQIEDQQGLPKKQQQLEFQGQVLQDWLGLGIYGIQDSDTLILSKKKGEALFPAS
On to B5, for which the binding entry is reported as “binds”.

B6: HECT and RLD domain containing E3 ubiquitin-protein ligase 5 (HERC5), endogenous (protein, UniProt Q9UII4 1-1024)
chain: MERRSRRKSRRNGRSTAGKAAATQPAKSPGAQLWLFPSAAGLHRALLRRVEVTRQLCCSPGRLAVLERGGAGVQVHQLLAGSGGARTPKCIKLGKNMKIHSVDQGAEHMLILSSDGKPFEYDNYSMKHLRFESILQEKKIIQITCGDYHSLALSKGGELFAWGQNLHGQLGVGRKFPSTTTPQIVEHLAGVPLAQISAGEAHSMALSMSGNIYSWGKNECGQLGLGHTESKDDPSLIEGLDNQKVEFVACGGSHSALLTQDGLLFTFGAGKHGQLGHNSTQNELRPCLVAELVGYRVTQIACGRWHTLAYVSDLGKVFSFGSGKDGQLGNGGTRDQLMPLPVKVSSSEELKLESHTSEKELIMIAGGNQSILLWIKKENSYVNLKRTIPTLNEGTVKRWIADVETKRWQSTKREIQEIFSSPACLTGSFLRKRRTTEMMPVYLDLNKARNIFKELTQKDWITNMITTCLKDNLLKRLPFHSPPQEALEIFFLLPECPMMHISNNWESLVVPFAKVVCKMSDQSSLVLEEYWATLQESTFSKLVQMFKTAVICQLDYWDESAEENGNVQALLEMLKKLHRVNQVKCQLPESIFQVDELLHRLNFFVEVCRRYLWKMTVDASENVQCCVIFSHFPFIFNNLSKIKLLHTDTLLKIESKKHKAYLRSAAIEEERESEFALRPTFDLTVRRNHLIEDVLNQLSQFENEDLRKELWVSFSGEIGYDLGGVKKEFFYCLFAEMIQPEYGMFMYPEGASCMWFPVKPKFEKKRYFFFGVLCGLSLFNCNVANLPFPLALFKKLLDQMPSLEDLKELSPDLGKNLQTLLDDEGDNFEEVFYIHFNVHWDRNDTNLIPNGSSITVNQTNKRDYVSKYINYIFNDSVKAVYEEFRRGFYKMCDEDIIKLFHPEELKDVIVGNTDYDWKTFEKNARYEPGYNSSHPTIVMFWKAFHKLTLEEKKKFLVFLTGTDRLQMKDLNNMKITFCCPESWNERDPIRALTCFSVLFLPKYSTMETVEEALQEAINNNRGFG
Take B6: the binding result is “binds”.

B7: IFIT3 (protein, UniProt O14879 1-490)
chain: MSEVTKNSLEKILPQLKCHFTWNLFKEDSVSRDLEDRVCNQIEFLNTEFKATMYNLLAYIKHLDGNNEAALECLRQAEELIQQEHADQAEIRSLVTWGNYAWVYYHLGRLSDAQIYVDKVKQTCKKFSNPYSIEYSELDCEEGWTQLKCGRNERAKVCFEKALEEKPNNPEFSSGLAIAMYHLDNHPEKQFSTDVLKQAIELSPDNQYVKVLLGLKLQKMNKEAEGEQFVEEALEKSPCQTDVLRSAAKFYRRKGDLDKAIELFQRVLESTPNNGYLYHQIGCCYKAKVRQMQNTGESEASGNKEMIEALKQYAMDYSNKALEKGLNPLNAYSDLAEFLETECYQTPFNKEVPDAEKQQSHQRYCNLQKYNGKSEDTAVQHGLEGLSISKKSTDKEEIKDQPQNVSENLLPQNAPNYWYLQGLIHKQNGDLLQAAKCYEKELGRLLRDAPSGIGSIFLSASELEDGSEEMGQGAVSSSPRELLSNSEQLN
On to B7, for which the binding result is given as “binds”.
